This is one part of the list.
B1: il2ra_site2_2erj_normal_mot_ca9fcc9ace360711d783d1260e4fbff1_0001_1_af2_000000007_0001_15_32_H_._HHH_b2_06346_af2_0001_0000200012_0000001_0 (protein)
chain: SSSSSDEEVQEEVREILEEAEKIEDLEEAFRLAVEALRVASEGNDEEALEEVLRWLEERSSSSSS
B2: il2ra_site2_2erj_normal_mot_HHH_b2_02430_000000062_0001_23_40_H_._afa99cb2f1b48a14133d328b841439c2_0001_af2_0001_0000100009_0000001_0 (protein)
chain: SEEAEERARELAGGDLELAFLILAALANLRAGVPPEEIEKLLRRSAEEAGIPPEKVEQALELAEP
B3: il2ra_site1_1z92_sap_13_mot_HHH_b1_00368_000000203_0001_23_39_H_._HHH_b1_04173_af2_0001_0000100007_0000001_0_0001 (protein)
chain: SSSSSSELIWKAMREAQELVREGNEEEARRLLEEVAEELERQNNPAAVKQIERLLRLLEGSSSSS
B4: il2ra_site2_3nfp_sap_17_mot_HHH_b2_07840_000000026_0001_18_34_H_._HHH_b2_07529_0001_0000700032_0000001_0_0001 (protein)
chain: SSSSSEAEEYLEAALLLLERAIELGDKEAFESTLEAVRLAAESNNDEEVEKRVEELEKEFKSSSS
B5: il2ra_site2_2erj_normal_mot_HHH_b1_01029_000000103_0001_43_57_H_._HHH_b2_05337_af2_0001_0000400037_0000001_0 (protein)
chain: SSSSSDWLEELYRLLEEIMRLLAEGNHEEAERLLEELKELAKKADSLAAEEVAELLEQHLSSSSS
B6: il2ra_site2_2erj_sap_19_mot_HHH_b2_06912_000000039_0001_38_52_H_._HHH_b1_00662_af2_0001_0000900011_0000001_0_0001 (protein)
chain: SSSSDVEEEVERLLEEAKEAYKEGDLHEVYRLVVEALHLASKNQDPELLKLVAKVFEELQSSSSS
B7: il2ra_site2_2erj_normal_mot_HHH_b1_02757_000000121_0001_41_57_H_._HHH_b2_06164_0001_0000400025_0000001_0_af2pred_0001_1_af2pred_swapped (protein)
chain: SSSSSSDAEERLRELLEEARHIKDPREALKVLQEAAEIASEYHDPELLELVLEAAREQSSSSSSS
B8: il2ra_site1_2b5i_normal_mot_2cbe48e66a1f39b3fed734b245ab0a04_0001_000000015_0001_17_31_H_._HHH_b2_07141_0001_0000300013_0000001_0_af2pred_dldesign_0_af2pred (protein)
chain: SSSSSDPEEVRRRVEELLERARELPDIAEAERVLYEALFVARKGRDEELIARVEEEYKRLSSSSS
B9: il2ra_site2_3nfp_sap_27_mot_HHH_b1_02173_000000190_0001_1_18_H_._HHH_b1_03048_0001_0000200006_0000001_0_0001 (protein)
chain: SSSSSEEREFRRAVESALRFAKRTPDEELRRSALEWARAAALMLGDPELERLVEEVAEELSSSSS
B10: il2ra_site2_2erj_normal_mot_HHH_b2_00484_af2_000000139_0001_42_55_H_._HHH_b2_04766_af2_0001_0000300006_0000001_0 (protein)
chain: SSSSSKEAWELAARASIEALELYKRGNPEEAERLLEEALEEVEKLGDEIAARYLEHARRHLSSSS
B11: il2ra_site1_2b5i_normal_mot_f5ff40796168375b462bec8614a1db4a_0001_1_000000138_0001_53_65_H_._HHH_b2_03702_0001_0000200025_0000001_0_af2pred_dldesign_0_af2pred (protein)
chain: SSSSSSDTRELIDELLAEAARLEDERLRKKLLLLARDIARKAGDEERVAELERLLAELESSSSSS
B12: il2ra_site1_2b5i_sap_9_mot_HHH_b1_06258_af2_000000112_0001_42_56_H_._HHH_b1_08418_af2_0001_0000200024_0000001_0_0001_af2pred_0001_af2pred_1 (protein)
chain: TERRRIIELLDEAAKHVPPEVFELLLRVLRLLARGDPEEARKLLEEAIELVGDPLLKEALELLEK
B13: il2ra_site1_2b5i_normal_mot_0e5a94e4a5addaac739760efb25f0f5d_0001_000000289_0001_18_32_H_._39ed66e5fba071e4f274ea7f2cf018e6_0001_af2_0001_0000400019_0000001_0_a … (protein)
chain: SPALDALYDAAQAAGDKKLMKLTIKARYLQEIGAAPEEIKAWLRRYAERHGVPEEHLEAVAEALE
B14: il2ra_site1_2b5i_normal_mot_0e5a94e4a5addaac739760efb25f0f5d_0001_000000208_0001_18_32_H_._HHH_b2_05387_af2_0001_0000100003_0000001_0_af2pred_dldesign_0_af2pred (protein)
chain: SSSSDVEKAKKLLEEAKAALEAGRPEEARRLLEEAAKIALDSDDVELKTEIVKLLHRVRLSSSSS
B15: il2ra_site2_3nfp_sap_21_mot_HHH_b1_04032_000000208_0001_43_56_H_._HHH_b2_02520_af2_0001_0000400008_0000001_0_0001_af2pred_0001_af2pred (protein)
chain: SSSSSEEVEELIERVEELLKKGDVEEAHRVLKEAAKLAREAGDEELFLELLLLLRLVRRLESSSS
B16: il2ra_site2_2erj_normal_mot_HHH_b2_08364_000000146_0001_1_19_H_._HEEHE_1265_af2_0001_0000100004_0000001_1_af2pred_0001_af2pred (protein)
chain: DDKLLVEVAIEAVARKAGIPSIEVEVSNGTIEVTIDGNDEAARYVELAARFVAEQLGLEVEVEVE
B17: il2ra_site1_2b5i_sap_25_mot_e46e631880b6e8cfa39cf89b6d9ac203_0001_1_000000162_0001_19_34_H_._3abea1aeba1101aad97199a57a9882c4_0001_af2_0001_0000100002_0000001_0 … (protein)
chain: SSSSEEKYDEIDRLFNEALKLKQAGKKEEAKEKLEKALELAKEMGSEKIIKELEYFLELVSSSSS
B18: il2ra_site2_2erj_normal_mot_af86707857d369f3e1d85dcabc5f9321_0001_000000201_0001_14_29_H_._HHH_b2_03838_af2_0001_0000100002_0000001_0 (protein)
chain: SSSSSSSEEEEAKELTEEAKEIEDPDEALEVLSEAFVLAYRVGDHRLAAEVIELAHRLLSSSSSS

Target: il2ra, P01589
Assay: yeast display titration

Binder	apparent Kd
B1	inactive: no binding seen
B2	inactive: no binding seen
B3	inactive: no binding seen
B4	inactive: no binding seen
B5	inactive: no binding seen
B6	inactive: no binding seen
B7	inactive: no binding seen
B8	inactive: no binding seen
B9	inactive: no binding seen
B10	inactive: no binding seen
B11	inactive: no binding seen
B12	inactive: no binding seen
B13	inactive: no binding seen
B14	inactive: no binding seen
B15	inactive: no binding seen
B16	inactive: no binding seen
B17	inactive: no binding seen
B18	inactive: no binding seen

In another format: results already given.
Binder | apparent Kd
B3 | inactive: no binding seen
B4 | inactive: no binding seen
B5 | inactive: no binding seen
B6 | inactive: no binding seen

Reference: paper PMC10163288
